Data: article PMC7819943, “Rice protein-binding microarrays: a tool to detect cis-acting elements near promoter regions in rice”
The other results are listed elsewhere or left out.

molecular target: T1, OsSMF1 (Oryza sativa, UniProt Q6ZLB0 1-436); assay: protein-binding microarray (RPBM); PBS, 2% BSA, 51.3 ng/ul salmon testes DNA, 50 uM zinc acetate, 200 nM TF, 25 C, 1 h; high values mean tight binding; conditions: protein: recombinant; tags: N-terminal polyhistidine and DsRed monomer fusion (pET32a); chain copies: 2; label: CyDye5-dUTP incorporated in the synthesized complementary strand; 3' TTTTT single-stranded linker to array surface; dsDNA, one strand shown
T1 sequence: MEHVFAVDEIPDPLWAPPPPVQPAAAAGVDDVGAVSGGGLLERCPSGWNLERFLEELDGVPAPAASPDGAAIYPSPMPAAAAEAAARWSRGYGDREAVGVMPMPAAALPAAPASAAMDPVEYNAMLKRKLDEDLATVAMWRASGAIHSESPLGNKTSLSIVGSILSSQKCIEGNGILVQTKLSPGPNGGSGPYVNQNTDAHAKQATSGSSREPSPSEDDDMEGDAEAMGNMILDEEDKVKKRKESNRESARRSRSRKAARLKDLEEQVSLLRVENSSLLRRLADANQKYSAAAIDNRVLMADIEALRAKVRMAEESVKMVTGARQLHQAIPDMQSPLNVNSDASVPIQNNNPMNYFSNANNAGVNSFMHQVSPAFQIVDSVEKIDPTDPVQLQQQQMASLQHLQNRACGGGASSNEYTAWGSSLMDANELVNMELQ
How it was run: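 Binding signal is defined as the fluorescence intensity of each feature in arbitrary units, read on an Axon 4000B scanner. Transcription factors with N-terminal polyhistidine and DsRed fusions came from E. coli BL21-CodonPlus and were purified on Ni–NTA. They were incubated at 200 nM for 1 h at 25 °C on a custom Agilent array that had been made double-stranded with Cy5-dUTP, with 50 µM zinc acetate present, and the array was washed.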

| Sequence | binding signal |
| --- | --- |
| TCTCCTTATAGCCCTCTAGGATGACGTTAAGGGGTTGCCTCGGAGTCACCTAGTGCAG | 3490 fluorescence intensity (a.u.) |
| CTTTGTACAAGTACGTACACGTATGATCAACGACAGTTTCCGGAGTCACCTAGTGCAG | 7980 fluorescence intensity (a.u.) |
| GGGCTTGCCCTCCATGAGCACCTCACGGCTGACGGAGGCGCGGAGTCACCTAGTGCAG | 3440 fluorescence intensity (a.u.) |
| TTGGACGATGACAACCTAGCGCGACGTGGCAGCGCGCCACCGGAGTCACCTAGTGCAG | 11300 fluorescence intensity (a.u.) |
| GCAACTGACGACTGCGACTGCCTCCTCTTCTTCTTCTTCGCGGAGTCACCTAGTGCAG | 3610 fluorescence intensity (a.u.) |
| GTGACAGTCCATTGTATTCACACGTGGTCCACTGTATTCACGGAGTCACCTAGTGCAG | 5200 fluorescence intensity (a.u.) |
| GGATCTCCGCATGCGCCACGTCCGCGGCGGGATCTAGCGGCGGAGTCACCTAGTGCAG | 8200 fluorescence intensity (a.u.) |
| GTCATCATGTGCGCACTAATCTCTGAGTCAGTGACAAATTCGGAGTCACCTAGTGCAG | 6820 fluorescence intensity (a.u.) |
| CCTAATTTGCGTGATTGGATTGGTTGGTTGTGTTGTAATGCGGAGTCACCTAGTGCAG | 29800 fluorescence intensity (a.u.) |
| GTGAGGTAATCCCACATCATCCTCCCGCGGATTTACCATTCGGAGTCACCTAGTGCAG | 5770 fluorescence intensity (a.u.) |
| GAAGAACATGGCGAGCACCTGACTAAACACTGCAAGCGAGCGGAGTCACCTAGTGCAG | 4390 fluorescence intensity (a.u.) |
| TTGTAGTACTCCTCACCACGTCGTCGACTCGATCGTACCTCGGAGTCACCTAGTGCAG | 4110 fluorescence intensity (a.u.) |
| TAATAGTAAGCTATAAACTGGCTAAATGCTGAGGTGGAGGCGGAGTCACCTAGTGCAG | 4200 fluorescence intensity (a.u.) |
| AGATTTAGCCACATCACCTCGATAACGTGGCCAAATTATACGGAGTCACCTAGTGCAG | 4450 fluorescence intensity (a.u.) |
| AGTGGAAAATTTTGAATAAGGCAATTGAAATTAGAAGGTGCGGAGTCACCTAGTGCAG | 26800 fluorescence intensity (a.u.) |
| GAATGATGACTGGACTGCCACACGTACACCACGTAGACCACGGAGTCACCTAGTGCAG | 9760 fluorescence intensity (a.u.) |
| TAAATGCTTTGCTACTCTGAGCTGCTGGTGCTGCGGATGACGGAGTCACCTAGTGCAG | 3160 fluorescence intensity (a.u.) |
| GGTTGGAGCCGATGTGGACGTCATCGAGCTGCTCGCATCCCGGAGTCACCTAGTGCAG | 6430 fluorescence intensity (a.u.) |
| AGATGTCGCCGGTGAAGTGGTTCTCTTCCAGCCGGACCCGCGGAGTCACCTAGTGCAG | 3330 fluorescence intensity (a.u.) |
| TGGTGCTTGCCAGTACGTTATTTCTAATAATGTGCTGACTCGGAGTCACCTAGTGCAG | 4620 fluorescence intensity (a.u.) |
| TCATTTTCAGATTAGAGGCTTTGCATGGCCTGCAGTTCTGCGGAGTCACCTAGTGCAG | 31600 fluorescence intensity (a.u.) |

Random excerpt: 2 records from the list, in no set order.

| Sequence | binding signal |
| --- | --- |
| TGGTGCTTGCCAGTACGTTATTTCTAATAATGTGCTGACTCGGAGTCACCTAGTGCAG | 4620 fluorescence intensity (a.u.) |
| GAATGATGACTGGACTGCCACACGTACACCACGTAGACCACGGAGTCACCTAGTGCAG | 9760 fluorescence intensity (a.u.) |

The list continues:

| Sequence | binding signal |
| --- | --- |
| CGGTCTTGTTGCAGACACGTCCTTCCTATTTGTTTCCAAACGGAGTCACCTAGTGCAG | 6760 fluorescence intensity (a.u.) |
| CAAGCTGGCTGCCTCCCGCGTGGCACTCGTGCCTCCTCTGCGGAGTCACCTAGTGCAG | 5530 fluorescence intensity (a.u.) |
| TTAAGTAGGATACGATCACACGATGCATGCATGTGGAGTACGGAGTCACCTAGTGCAG | 3550 fluorescence intensity (a.u.) |
| TTGTGAAATTGAAAATACACCTTATAATGAGGTGGTTTTCCGGAGTCACCTAGTGCAG | 4050 fluorescence intensity (a.u.) |
| AATCGAGTATATGTCATCGTCGTCGTCATGTCATGCAGCCCGGAGTCACCTAGTGCAG | 5200 fluorescence intensity (a.u.) |
| GTCGAACCGCTGCGTCACTCTGGTCAGGCGGCATGTGATCCGGAGTCACCTAGTGCAG | 6390 fluorescence intensity (a.u.) |
| CTCCCGCCCGCCGCAGCCGACGCCACGCGCGCGATCTCCCCGGAGTCACCTAGTGCAG | 3390 fluorescence intensity (a.u.) |
| ATCTTGATGGGTACGTGTCCAACATCGTCATGGCCATTGGCGGAGTCACCTAGTGCAG | 5290 fluorescence intensity (a.u.) |
| GTTGTCACCCTTGTGACTATTGTGACGTGTGCATATCTCACGGAGTCACCTAGTGCAG | 10800 fluorescence intensity (a.u.) |
| ATCACATGTCATACACACACAACTTTTCAGTCACATCATCCGGAGTCACCTAGTGCAG | 3510 fluorescence intensity (a.u.) |
| CTGACATGTTTCTTTACATACTTATATAATCCAATTAATACGGAGTCACCTAGTGCAG | 29200 fluorescence intensity (a.u.) |
| CACAGCTATACTGGAACGATGGAATCTCCAATTAGTACACCGGAGTCACCTAGTGCAG | 16700 fluorescence intensity (a.u.) |
| ATTCTCCTCGCTTCCTCCTCTTTCTCTCTCTACGCCCTCGCGGAGTCACCTAGTGCAG | 12200 fluorescence intensity (a.u.) |
| CTGTCTGTCGTATATACGTATGAGGTGGTAGTATCTCCGTCGGAGTCACCTAGTGCAG | 3410 fluorescence intensity (a.u.) |
| CTAACAAACGCAGCCGAGACTGTTGGAACATAATCTTGGGCGGAGTCACCTAGTGCAG | 3190 fluorescence intensity (a.u.) |
| CGGGAGCCAGGTGGATTGGGCTGAGGTGGTGGTGGTGGGCCGGAGTCACCTAGTGCAG | 4900 fluorescence intensity (a.u.) |
| CCAAAGGCCCAAAACCAGCCTCCGTCTCCGTGTCACCCCTCGGAGTCACCTAGTGCAG | 5070 fluorescence intensity (a.u.) |
| AACATTGTGCTTGTCATCATAATTCGTCACTAGCAGGCTTCGGAGTCACCTAGTGCAG | 4900 fluorescence intensity (a.u.) |
| TGACACGGGAAAGCACCACCCGATGACTAGACCAGAGACCCGGAGTCACCTAGTGCAG | 5270 fluorescence intensity (a.u.) |
| AACTTGGTGGGTTTGGTTTTGCTCTTTCTGTTGACCAAGCCGGAGTCACCTAGTGCAG | 3190 fluorescence intensity (a.u.) |
| GCCATCCAAAGCCTTGGGCCCACAGAACAGTCTCCCTTTACGGAGTCACCTAGTGCAG | 23200 fluorescence intensity (a.u.) |
